PubChem BioAssay AID720505, Drosophila RNAi Screening Center | 2013
Assay: 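Knock-downs that reduce calcium influx once internal stores are emptied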 (primary screen). Cells: Drosophila S2R+ cells. Reagent: long dsRNA against Drosophila genes. Treatment: thapsigargin (2 µM) in calcium-free buffer to empty internal stores, then 2 mM calcium added back. Read-out: 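Fluo-4 signal in 384-well plates read on a FLIPR after thapsigargin (2 µM, calcium-free) store depletion and 2 mM calcium add-back; unnormalised mean endpoint per well; screen run twice, selected wells retested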. Reading the numbers: calcium signal and retest calcium signal: higher = more calcium entry after store depletion. Active means: 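About 1500 genes called as lowering calcium entry, by varying amounts, judged against per-plate control wells with STIM1 as positive and Rho1 as negative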. Meaning of the calls: active = called as lowering calcium entry; inactive = not called.
In all, the deposit lists about 20,000 reagents; this is a random part of those with a known target gene and a result. Over the whole deposit, about 2,100 (10%) got an active call. 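Raw plate signals without normalisation; calls rest on control-based scores that were not deposited; replicate 2 separates called from uncalled poorly.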 Names joined by + are all predicted targets of the reagent. The record does not give: the amount of reagent, the time to read-out.

The opening 11 entries, ahead of the listing:
gene knocked down | amplicon | calcium signal, replicate 1 | calcium signal, replicate 2 | retest calcium signal, replicate 1 | retest calcium signal, replicate 2 | outcome
CG14106 | DRSC10109 | 84.5 | 81.1 | – | – | inactive
Cka | DRSC03476 | 168 | 206 | – | – | inactive
Cka | DRSC22858 | 88.4 | 125 | – | – | inactive
4E-T | DRSC17201 | 121 | 157 | – | – | inactive
4E-T | DRSC17208 | 96.8 | 128 | – | – | inactive
CG31643 | DRSC00906 | 98.7 | 96.7 | – | – | inactive
Ufl1 | DRSC12527 | 86.8 | 90.5 | – | – | inactive
mthl4 | DRSC06998 | 135 | 118 | – | – | inactive
CG42566 | DRSC03949 | 124 | 9504 | – | – | inactive
CG8229 + CG33199 | DRSC05134 | 66.6 | 84.5 | – | – | active
Rab39 | DRSC17827 | 181 | 82.7 | – | – | inactive

Main list, from the first entry:
gene knocked down | amplicon | calcium signal, replicate 1 | calcium signal, replicate 2 | retest calcium signal, replicate 1 | retest calcium signal, replicate 2 | outcome
CG14106 | DRSC10109 | 84.5 | 81.1 | – | – | inactive
Cka | DRSC03476 | 168 | 206 | – | – | inactive
Cka | DRSC22858 | 88.4 | 125 | – | – | inactive
4E-T | DRSC17201 | 121 | 157 | – | – | inactive
4E-T | DRSC17208 | 96.8 | 128 | – | – | inactive
CG31643 | DRSC00906 | 98.7 | 96.7 | – | – | inactive
Ufl1 | DRSC12527 | 86.8 | 90.5 | – | – | inactive
mthl4 | DRSC06998 | 135 | 118 | – | – | inactive
CG42566 | DRSC03949 | 124 | 9504 | – | – | inactive
CG8229 + CG33199 | DRSC05134 | 66.6 | 84.5 | – | – | active
Rab39 | DRSC17827 | 181 | 82.7 | – | – | inactive
CG13321 | DRSC06358 | 68.6 | 90.8 | – | – | inactive
CG7745 | DRSC07037 | 139 | 144 | – | – | inactive
CG7745 | DRSC23103 | 142 | 167 | – | – | inactive
smo | DRSC00837 | 96.6 | 178 | – | – | inactive
mRpL12 | DRSC10467 | 145 | 99.7 | – | – | inactive
CG14515 | DRSC14867 | 113 | 97.5 | – | – | inactive
CG16739 | DRSC06621 | 101 | 80.6 | – | – | inactive
Prp16 | DRSC19538 | 81.4 | 70.2 | – | – | inactive
Prp16 | DRSC19542 | 61.1 | 138 | – | – | active
Eig71Eb | DRSC11149 | 75 | 156 | – | – | inactive
laza | DRSC11661 | 115 | 152 | – | – | inactive
laza | DRSC23330 | 95 | 134 | – | – | inactive
Pde9 | DRSC19746 | 127 | 108 | – | – | inactive
Pde9 | DRSC19874 | 164 | 117 | – | – | inactive
Pde9 | DRSC19875 | 170 | 98.5 | – | – | inactive
Pde9 | DRSC19876 | 102 | 110 | – | – | inactive
CG30472 | DRSC22245 | 82.2 | 92.5 | – | – | inactive
MED26 | DRSC17126 | – | – | – | – | active
MED26 | DRSC17147 | 93.9 | 139 | – | – | inactive
MED26 | DRSC17148 | 118 | 82.9 | – | – | inactive
Gr33a | DRSC02589 | 74.2 | 96.3 | – | – | inactive
CG3348 | DRSC15480 | 151 | 121 | – | – | inactive
mRpL46 | DRSC08391 | 78.8 | 101 | – | – | inactive
Wwox | DRSC03030 | 136 | 238 | 79.1 | 87.1 | inactive
Wwox | DRSC22872 | 88.2 | 155 | – | – | inactive
CG44000 + CG33995 + CG44001 | DRSC00853 | 73 | 156 | – | – | inactive
CG44000 + CG33995 + CG44001 | DRSC02898 | 52.5 | 158 | – | – | active
CG3419 (retired record) | DRSC04368 | 153 | 142 | – | – | inactive
CG3419 (retired record) | DRSC04369 | 175 | 214 | – | – | inactive
Mvb12 | DRSC20027 | 106 | 129 | – | – | inactive
CG10874 | DRSC00297 | 144 | 167 | – | – | inactive
ADD1 | DRSC07135 | 177 | 183 | – | – | inactive
CG10621 | DRSC02078 | 116 | 126 | – | – | inactive
CG13144 | DRSC02241 | 165 | 132 | – | – | inactive
HBS1 | DRSC08544 | 143 | 116 | – | – | inactive
CG9410 + CG15908 | DRSC04976 | 93.3 | 142 | – | – | active
CG9410 + CG15908 | DRSC05001 | 184 | 198 | – | – | inactive
Cyp4p2 | DRSC07373 | 112 | 103 | – | – | inactive
Vmat + CG13330 | DRSC06365 | 127 | 146 | – | – | inactive
su(w[a]) | DRSC18840 | 120 | 194 | – | – | inactive
Dna2 | DRSC18254 | 132 | 125 | – | – | inactive
Lcp65Ac | DRSC11210 | 123 | 117 | – | – | inactive
Tim8 | DRSC20291 | 83.8 | 83.2 | – | – | inactive
CG10051 | DRSC05959 | 138 | 94.2 | – | – | inactive
endos | DRSC10658 | 94.8 | 110 | – | – | inactive
Tengl4 | DRSC15620 | 47.6 | 180 | – | – | active
CG1513 | DRSC05194 | 114 | 138 | – | – | inactive
CG1513 | DRSC06553 | 164 | 149 | – | – | inactive
CG1513 | DRSC06554 | 49.5 | 97.8 | – | – | active
S | DRSC00785 | 142 | 120 | – | – | inactive
RpL18 | DRSC11016 | 92.3 | 41.2 | 81 | 72.8 | inactive
RpL18 | DRSC22323 | 73.2 | 129 | – | – | active
Lrr47 | DRSC03365 | 66.1 | 91.9 | – | – | active
Nep6 | DRSC19877 | 167 | 110 | – | – | inactive
CG34384 | DRSC12642 | 8624 | 195 | – | – | inactive
CG34384 | DRSC14855 | 125 | 152 | – | – | inactive
CG34384 | DRSC15444 | 150 | 172 | – | – | inactive
CG34384 | DRSC16575 | 99.8 | 167 | – | – | inactive
Syx1A | DRSC15359 | 194 | 166 | – | – | inactive
Syx1A | DRSC21554 | 165 | 66.6 | – | – | inactive
sls | DRSC08528 | 116 | 96.2 | – | – | inactive
sls | DRSC08540 | 83.3 | 138 | – | – | inactive
sls | DRSC08670 | 73 | 57.7 | – | – | inactive
CG4045 | DRSC18518 | 139 | 136 | – | – | inactive
wek | DRSC03561 | 99.1 | 85.5 | – | – | inactive
Rca1 | DRSC03407 | 95.9 | 165 | – | – | inactive
CG10663 | DRSC09770 | 137 | 134 | – | – | inactive
U3-55K | DRSC05982 | 148 | 235 | – | – | inactive
tyn | DRSC20652 | 195 | 98 | – | – | inactive
Ugt302E1 | DRSC15635 | 50 | 96.2 | – | – | active
Ir76b | DRSC10831 | 112 | 93.9 | – | – | inactive
CG14316 | DRSC14795 | 155 | 139 | – | – | inactive
GstE10 | DRSC06671 | 221 | 139 | – | – | inactive
dnr1 | DRSC03948 | 94.7 | 5710 | – | – | inactive
dnr1 | DRSC04122 | 74.5 | 130 | – | – | inactive
Pal1 | DRSC06106 | 214 | 215 | – | – | inactive
Cnot4 | DRSC02830 | 201 | 181 | – | – | inactive
Cnot4 | DRSC02831 | 154 | 188 | – | – | inactive
CDase | DRSC14932 | 108 | 113 | – | – | inactive
lncRNA:sphinx | DRSC17199 | 71.4 | 96.7 | – | – | active
Arp5 | DRSC16350 | 178 | 289 | – | – | inactive
MED30 | DRSC08516 | 64.1 | 120 | – | – | active
MED30 | DRSC23135 | 120 | 196 | – | – | inactive
CG12974 | DRSC11684 | 91.7 | 158 | – | – | inactive
hts | DRSC05791 | 125 | 96.7 | – | – | inactive
IleRS | DRSC11667 | 61.4 | 98.2 | – | – | active
RIOK1 | DRSC09853 | 105 | 89.7 | – | – | inactive
Nep7 | DRSC15830 | 107 | 120 | – | – | inactive
CG8093 | DRSC07078 | 111 | 143 | – | – | inactive
zfh2 | DRSC17178 | 109 | 187 | – | – | inactive
CG8306 | DRSC07141 | 157 | 116 | – | – | inactive
CG4360 | DRSC15566 | 128 | 152 | – | – | inactive
Uhg3 | DRSC22963 | 98 | 134 | – | – | inactive
CG30338 | DRSC05166 | 73.8 | 65.7 | – | – | active
sip1 | DRSC03609 | 145 | 110 | – | – | inactive
sip1 | DRSC22648 | 108 | 173 | – | – | inactive
